Source: PubChem BioAssay AID1259405 (NCATS, 2018)
The whole screen tested about 50,000 reagents; shown is a random part of them. Over the whole deposit, about 4,000 (8%) are marked active. 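Mouse siRNA library applied to hamster cells; one well for each siRNA.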 Unmarked entries are inactive. Reagents against one gene are numbered here. No sequences are given here.

Assay: 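Mouse-designed siRNAs used to find CHO productivity engineering targets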 (primary screen)
Cells: Chinese hamster CHO-K1 ovary cells with stable secreted eGFP expression
Reagents: single siRNA against mouse genes, 0.8 pmol siRNA per well (2 µl of 400 nM stock)
Duration: 3 days
Measurement: 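Percent of the per-plate non-targeting control median for intracellular GFP per well by laser scanning cytometry and for cell viability by ATP luminescence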
Direction: GFP, % of control: higher = more GFP per well, higher productivity; viability (ATP), % of control: higher = more viable cells (more ATP)
Rule for the call: 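a knock-down is called active if GFP reaches 120% or more of non-targeting control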

gene | siRNA no. | GFP, % of control | viability (ATP), % of control
Trip10 | 1 | 54.6 | 61.4
Trip10 | 2 | 105 | 121
Trip10 | 3 | 89.5 | 89.9
Slc67a1 | 1 | 104 | 93
Slc67a1 | 2 | 62.3 | 69.5
Slc67a1 | 3 | 106 | 90.2
P4hb | 1 | 70.6 | 108
P4hb | 2 | 29.5 | 58
P4hb | 3 | 48.2 | 73.4
Depdc1a | 1 | 79.7 | 80.7
Depdc1a | 2 | 74.1 | 82.7
Depdc1a | 3 | 51 | 54.9
Shfl | 1 | 85.5 | 79.9
Shfl | 2 | 96.8 | 63.6
Shfl | 3 | 55.2 | 82.6
Smarcad1 | 1 | 95.4 | 94.5
Smarcad1 | 2 | 48.6 | 25.4
Smarcad1 | 3 | 63.3 | 70.9
Ddit3 | 1 | 87.6 | 86.5
Ddit3 | 2 | 103 | 72.7
Ddit3 | 3 | 124 (active) | 101
Map3k8 | 1 | 66.8 | 74.4
Uqcc2 | 1 | 41 | 72.4
Uqcc2 | 2 | 58.3 | 67.1
Uqcc2 | 3 | 61 | 52.7
Ifih1 | 1 | 85.4 | 92.4
Ifih1 | 2 | 96.2 | 105
Ifih1 | 3 | 125 (active) | 113
Tmem268 | 1 | 112 | 90.3
Tmem268 | 2 | 81 | 86.2
Tmem268 | 3 | 67.6 | 67
Tspo2 | 1 | 62.2 | 64.8
Tspo2 | 2 | 78.6 | 78.7
Tspo2 | 3 | 35.9 | 36.4
Lrrc52 | 1 | 31.1 | 32.1
Lrrc52 | 2 | 88.2 | 99.5
Lrrc52 | 3 | 197 (active) | 112
Fars2 | 1 | 93.4 | 74.8
Fars2 | 2 | 165 (active) | 159
Eif3f | 1 | 91.5 | 40.9
Eif3f | 2 | 48.1 | 45.6
Eif3f | 3 | 28.8 | 30.6
Oxgr1 | 1 | 98.8 | 70.2
Oxgr1 | 2 | 81.5 | 52.9
Oxgr1 | 3 | 77.2 | 77.8
Aamp | 1 | 60.5 | 49.4
Aamp | 2 | 148 (active) | 96.4
Aamp | 3 | 92.8 | 89.9
Gk | 1 | 98.9 | 84.1
Gk | 2 | 121 (active) | 43.8
Gk | 3 | 105 | 103
Usp38 | 1 | 136 (active) | 74.8
Usp38 | 2 | 49.6 | 43.3
Usp38 | 3 | 45.9 | 65.2
Or5p72 | 1 | 96.3 | 67.8
Or5p72 | 2 | 88.5 | 94.1
Or5p72 | 3 | 82.1 | 50.5
Eri1 | 1 | 118 | 89
Eri1 | 2 | 110 | 76.6
Eri1 | 3 | 47.8 | 58.5
Mos | 1 | 57 | 74.3
Ica1 | 1 | 56.4 | 87.8
Ica1 | 2 | 69.2 | 60.2
Ica1 | 3 | 85.7 | 91.8
Ung | 1 | 78.4 | 98.1
Ung | 2 | 68 | 78
Ung | 3 | 79.9 | 66.4
Elovl6 | 1 | 129 (active) | 118
Elovl6 | 2 | 110 | 194
Elovl6 | 3 | 67.4 | 117
Ggh | 1 | 71.8 | 59
Ggh | 2 | 142 (active) | 110
Ggh | 3 | 78.9 | 68.5
Exosc8 | 1 | 111 | 106
Exosc8 | 2 | 39.3 | 46
Exosc8 | 3 | 58.9 | 86.5
Or1e17 | 1 | 74.3 | 62.6
Or1e17 | 2 | 113 | 66.1
Or1e17 | 3 | 41.7 | 80.4
Nts | 1 | 97.5 | 75.6
Nts | 2 | 130 (active) | 92.7
Nts | 3 | 70.9 | 112
Rnf24 | 1 | 73 | 83.8
Rnf24 | 2 | 59.7 | 69.4
Rnf24 | 3 | 61.9 | 63.5
Or1e26 | 1 | 61.2 | 62.5
Or1e26 | 2 | 204 (active) | 39.4
Or1e26 | 3 | 64.1 | 114
Cd207 | 1 | 74.5 | 83.7
Cd207 | 2 | 79.3 | 94.2
Cd207 | 3 | 62.1 | 55.7
Chpf | 1 | 123 (active) | 96.5
Chpf | 2 | 90.4 | 116
Chpf | 3 | 125 (active) | 113
Med4 | 1 | 62.2 | 54.8
Med4 | 2 | 60.7 | 62.6
Med4 | 3 | 73.7 | 59
Erp27 | 1 | 108 | 65.8
Erp27 | 2 | 72.9 | 80.8
Erp27 | 3 | 32.7 | 40.6
Tmem51 | 1 | 96.3 | 72.7
Tmem51 | 2 | 77.4 | 69.9
Tmem51 | 3 | 107 | 110
3110053B16Rik | 1 | 79.9 | 71.8
3110053B16Rik | 2 | 77.8 | 72.4
3110053B16Rik | 3 | 118 | 86.5
Pes1 | 1 | 36.8 | 44.7
Pes1 | 2 | 31.8 | 66
Pes1 | 3 | 85.4 | 85.1

Active calls, of those listed so far:
gene | siRNA no. | GFP, % of control | viability (ATP), % of control
Ddit3 | 3 | 124 (active) | 101
Ifih1 | 3 | 125 (active) | 113
Lrrc52 | 3 | 197 (active) | 112
Fars2 | 2 | 165 (active) | 159
Aamp | 2 | 148 (active) | 96.4
Gk | 2 | 121 (active) | 43.8
Usp38 | 1 | 136 (active) | 74.8
Elovl6 | 1 | 129 (active) | 118
Ggh | 2 | 142 (active) | 110
Nts | 2 | 130 (active) | 92.7
Or1e26 | 2 | 204 (active) | 39.4
Chpf | 1 | 123 (active) | 96.5
Chpf | 3 | 125 (active) | 113
